These results are taken from PMC6291992.

In assay [1] the target is T1, Tribbles pseudokinase 2 (TRIB2), endogenous in SW48 cells (human (endogenous in SW48)) (UniProt Q92519).
T1 sequence: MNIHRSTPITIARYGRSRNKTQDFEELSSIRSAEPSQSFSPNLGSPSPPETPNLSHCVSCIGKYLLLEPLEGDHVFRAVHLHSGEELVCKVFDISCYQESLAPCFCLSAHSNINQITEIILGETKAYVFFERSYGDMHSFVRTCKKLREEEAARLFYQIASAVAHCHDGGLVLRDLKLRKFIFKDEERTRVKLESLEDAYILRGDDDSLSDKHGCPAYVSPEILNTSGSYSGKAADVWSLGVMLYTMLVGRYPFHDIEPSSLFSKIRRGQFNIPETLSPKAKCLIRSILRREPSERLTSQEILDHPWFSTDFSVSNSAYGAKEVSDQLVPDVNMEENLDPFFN
As to the kind of experiment: co-IP; SW48 whole cell lysate (NP-40 lysis buffer); immunoprecipitation with anti-TRIB2 or anti-AP4 antibody overnight, protein A/G beads 2~4 h at 4 °C, western blot.

The target in a further assay is T2, His-TRIB2 (UniProt Q92519).
T2 sequence: T1 sequence
Put plainly: co-IP; HEK 293T cells co-transfected with Flag-AP4 and His-TRIB2 (or its deletion mutants), 48 h; whole cell lysates immunoprecipitated with anti-Flag or anti-His antibody and blotted with anti-His or anti-Flag antibody.

The target of a further assay is T3, GST-TRIB2 fusion protein (UniProt Q92519).
T3 sequence: T1 sequence
As to the kind of experiment: pull-down; purified His-AP4 incubated with GST or GST-TRIB2 bound to Glutathione Sepharose beads at 4 °C overnight; western blot of beads-associated proteins; both purified.

Assay [2] addresses T4, Transcription factor activating enhancer-binding protein 4 (AP4), endogenous in SW48 cells (human (endogenous in SW48)) (UniProt Q01664).
T4 sequence: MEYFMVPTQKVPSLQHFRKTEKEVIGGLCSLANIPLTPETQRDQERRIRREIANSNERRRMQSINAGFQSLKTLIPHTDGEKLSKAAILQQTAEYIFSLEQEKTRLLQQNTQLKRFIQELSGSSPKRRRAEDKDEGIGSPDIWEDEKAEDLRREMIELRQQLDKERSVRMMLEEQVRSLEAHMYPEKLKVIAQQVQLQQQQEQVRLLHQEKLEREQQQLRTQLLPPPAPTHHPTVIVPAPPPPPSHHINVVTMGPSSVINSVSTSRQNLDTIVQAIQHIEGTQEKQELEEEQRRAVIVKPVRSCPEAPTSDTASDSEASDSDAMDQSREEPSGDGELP
As to the kind of experiment: co-IP; SW48 whole cell lysate (NP-40 lysis buffer); immunoprecipitation with anti-TRIB2 or anti-AP4 antibody overnight, protein A/G beads 2~4 h at 4 °C, western blot. (A western blot detects proteins with antibodies after separation by electrophoresis.)

A further assay has as its target T5, Flag-AP4 (UniProt Q01664).
T5 sequence: T4 sequence
Put plainly: co-IP; HEK 293T cells co-transfected with Flag-AP4 and His-TRIB2 (or its deletion mutants), 48 h; whole cell lysates immunoprecipitated with anti-Flag or anti-His antibody and blotted with anti-His or anti-Flag antibody.

Results are given in words; binding and its absence hold for the method and conditions named. For part of these data: Binding seen in cells or lysates may run through a third protein. Some binding calls cover weakened binding; strength is not graded here. For part of these data: Where a sequence is shown, tags or fusion partners need not be part of it.

B1: Transcription factor activating enhancer-binding protein 4 (AP4), endogenous in SW48 cells (protein, UniProt Q01664 1-338)
chain: T4 sequence
Turning to B1, in assay [1], the binding result is on record as “binds”.

B2: Flag-AP4 (protein, UniProt Q01664 1-338)
chain: T4 sequence
With B2, in the assay with His-TRIB2, the binding result is recorded as “binds”.

B3: His-AP4 protein (protein, UniProt Q01664 1-338)
chain: T4 sequence
In the case of B3, the binding result in the assay with GST-TRIB2 fusion protein is recorded as “binds”.

B4: Tribbles pseudokinase 2 (TRIB2), endogenous in SW48 cells (protein, UniProt Q92519 1-343)
chain: T1 sequence
Turning to B4, the binding entry in assay [2] is reported as “binds”.

B5: His-TRIB2 (protein, UniProt Q92519 1-343)
chain: T1 sequence
Turning to B5, the binding result with Flag-AP4 was “binds”.

B6: His-TRIB2 kinase-like domain (KD) (domain or fragment, UniProt Q92519 61-308)
chain: IGKYLLLEPLEGDHVFRAVHLHSGEELVCKVFDISCYQESLAPCFCLSAHSNINQITEIILGETKAYVFFERSYGDMHSFVRTCKKLREEEAARLFYQIASAVAHCHDGGLVLRDLKLRKFIFKDEERTRVKLESLEDAYILRGDDDSLSDKHGCPAYVSPEILNTSGSYSGKAADVWSLGVMLYTMLVGRYPFHDIEPSSLFSKIRRGQFNIPETLSPKAKCLIRSILRREPSERLTSQEILDHPWF
Take B6: the binding entry with Flag-AP4 is listed as “binds”.
